From patent US20110105733A1 (Ablynx, published 2011) come the findings set out here.

Protein sequences, listed by entry. Tags and fused reporters are not part of them. Lines headed by an entry give the natural chain unless they say otherwise; changes in a name come on top. Residues count along the entry.
UniProt Q63722, residues 34-1067: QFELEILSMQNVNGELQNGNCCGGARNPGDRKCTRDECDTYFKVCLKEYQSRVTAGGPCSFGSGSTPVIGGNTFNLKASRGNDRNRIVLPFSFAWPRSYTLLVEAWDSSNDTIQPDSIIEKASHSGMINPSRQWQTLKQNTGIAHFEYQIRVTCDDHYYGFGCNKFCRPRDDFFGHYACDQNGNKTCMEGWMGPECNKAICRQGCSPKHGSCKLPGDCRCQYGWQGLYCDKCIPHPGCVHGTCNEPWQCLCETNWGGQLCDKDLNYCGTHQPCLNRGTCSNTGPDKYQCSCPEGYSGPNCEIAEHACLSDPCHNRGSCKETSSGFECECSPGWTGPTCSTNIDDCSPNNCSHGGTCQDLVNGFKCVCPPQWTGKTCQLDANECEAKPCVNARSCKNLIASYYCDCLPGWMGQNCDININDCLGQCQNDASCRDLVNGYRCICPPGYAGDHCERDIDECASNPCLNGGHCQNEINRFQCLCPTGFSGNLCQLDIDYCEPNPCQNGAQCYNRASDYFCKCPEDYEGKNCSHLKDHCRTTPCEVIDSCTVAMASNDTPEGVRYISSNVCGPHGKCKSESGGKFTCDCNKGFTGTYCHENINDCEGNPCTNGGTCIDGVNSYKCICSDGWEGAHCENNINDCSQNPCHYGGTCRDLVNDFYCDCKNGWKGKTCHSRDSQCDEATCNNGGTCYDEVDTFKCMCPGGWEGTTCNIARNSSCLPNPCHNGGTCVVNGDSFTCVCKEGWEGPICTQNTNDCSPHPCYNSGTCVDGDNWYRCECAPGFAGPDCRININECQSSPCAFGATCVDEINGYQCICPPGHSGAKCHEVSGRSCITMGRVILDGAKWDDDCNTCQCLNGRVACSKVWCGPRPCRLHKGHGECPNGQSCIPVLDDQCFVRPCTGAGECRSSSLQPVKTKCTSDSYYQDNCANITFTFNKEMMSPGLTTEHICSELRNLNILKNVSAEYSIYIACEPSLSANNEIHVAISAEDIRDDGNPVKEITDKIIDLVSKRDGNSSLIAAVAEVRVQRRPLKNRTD
UniProt P46531, residues 19-526: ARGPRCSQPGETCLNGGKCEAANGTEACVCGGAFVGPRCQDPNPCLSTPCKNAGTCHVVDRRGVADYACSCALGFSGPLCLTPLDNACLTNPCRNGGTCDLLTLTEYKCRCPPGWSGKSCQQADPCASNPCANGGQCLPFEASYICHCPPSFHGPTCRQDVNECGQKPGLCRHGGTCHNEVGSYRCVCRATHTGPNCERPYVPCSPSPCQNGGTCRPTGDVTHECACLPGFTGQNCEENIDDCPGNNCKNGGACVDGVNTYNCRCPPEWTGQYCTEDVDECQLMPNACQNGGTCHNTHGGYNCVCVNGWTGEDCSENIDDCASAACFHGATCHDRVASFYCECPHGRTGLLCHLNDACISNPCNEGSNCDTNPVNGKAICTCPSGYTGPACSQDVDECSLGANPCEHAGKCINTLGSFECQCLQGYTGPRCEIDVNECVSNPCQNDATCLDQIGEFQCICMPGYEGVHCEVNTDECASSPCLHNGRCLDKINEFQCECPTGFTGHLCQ

These are yes or no findings as the source states them, for the method shown. Some results given as binding are weak or reduced against the parent protein; the word gives no strength.

The target in test [1] is rat Jagged-1 (rrJagged-1, R&D Systems Cat #599-JG) (rat) (UniProt Q63722). Description: ELISA on coated rrJagged-1 (legend of FIG. 2). Background: An ELISA detects its analyte on a solid surface through an enzyme-linked reagent.
Test [2] shares this target. Description: ELISA: rat Jagged-1 (rrJagged-1) coated at 2 ug/mL, Nanobody series, detection by mouse anti-Myc tag and DAMPO, OD 490 nm.
The target is the same in test [3]. Description: ELISA, 2 ug/ml rrJagged-1 coated, 1-1000 nM Nanobody, anti-myc detection.
The target is the same in test [4]. The experiment in a line: summary of the ELISA binding and competition assays.
Test [5] has as its target recombinant human Notch-1/Fc Chimera (R&D Systems Cat No 3647-TK) (human) (UniProt P46531). The experiment in a line: ELISA: human Notch-1/Fc coated at 2 ug/mL, Nanobody series, detection by mouse anti-Myc tag and DAMPO, OD 490 nm.
Test [6] deals with biotinylated rrJagged-1 (rat) (UniProt Q63722). The experiment in a line: competition ELISA: rhNotch-1/hFc coated at 5 ug/mL, Nanobody series mixed with 0.3 ug/mL biotinylated rrJagged-1, detection by streptavidin-PO, OD 490 nm; blocked partner: Notch-1/hFc.
Test [7] concerns the target recombinant human Notch-1/Fc Chimera (R&D Systems Cat No 3647-TK) (human) (UniProt P46531). Description: ELISA: human Notch-1 coated at 2 ug/mL, Nanobody series 25 pM-2000 nM, detection by rabbit anti-VHH and DAMPO, OD 490 nm.
For test [8] the target is unchanged. The experiment in a line: ELISA on immobilised human Notch-1, 25 pM to 2000 nM Nanobody, anti-VHH detection.
In test [9] the target is T1, human Notch-3 (human, UniProt Q9UM47 40-467, limits assumed).
T1 construct: Construct not described
T1 sequence (looked up): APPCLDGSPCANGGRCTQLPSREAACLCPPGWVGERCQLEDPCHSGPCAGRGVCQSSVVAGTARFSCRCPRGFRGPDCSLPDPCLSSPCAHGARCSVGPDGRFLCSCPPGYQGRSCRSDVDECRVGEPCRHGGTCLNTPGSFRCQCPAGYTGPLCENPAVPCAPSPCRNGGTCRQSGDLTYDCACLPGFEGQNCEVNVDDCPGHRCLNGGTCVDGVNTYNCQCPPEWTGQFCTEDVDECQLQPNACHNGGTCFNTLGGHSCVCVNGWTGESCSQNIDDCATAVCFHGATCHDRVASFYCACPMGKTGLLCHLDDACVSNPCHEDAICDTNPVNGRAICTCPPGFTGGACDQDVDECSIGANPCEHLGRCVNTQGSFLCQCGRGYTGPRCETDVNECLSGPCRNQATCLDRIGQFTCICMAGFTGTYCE
The experiment in a line: ELISA on immobilised human Notch-3, 25 pM to 2000 nM Nanobody, anti-VHH detection.

The target in test [10] is T1, human Notch-3. The experiment in a line: ELISA: human Notch-3 coated at 2 ug/mL, Nanobody series 25 pM-2000 nM, detection by rabbit anti-VHH and DAMPO, OD 490 nm. The procedure: After washing, the plate was blocked using 4% Marvel skimmed milk in PBS for 30 minutes on shaker. A concentration series of the Nanobodies in Table B-5 (25 pM to 2000 nM) was added in 100 microliter 2% Marvell/PBS and incubated for 1 h on shaker. After washing the Nanobodies were detected with 100 microliter 1:2500 R-anti-VHH (1:2500) in 2% Marvell/PBS and 100 microliter 1:5000 DAMPO in 2% Marvell/PBS for 1 h on shaker. PO was detected with 100 microliter OPD and stopped with 50 microliter H2SO4. Quantification was performed at 490 nm in a plate reader.

B1: 178A7 (VHH)
VHH: EVQLVESGGGLVQPGGSLRLSCATSGVIFSTAAMGWYRQAPGKSRVLVARMFSDGRTIYAESVKRRFTISRDNAKNTVYLQMNSLEPEDTAVYYCNALQFGAVYWGQGTQVTVSS
notes: Nanobody against rat Jagged-1; not shown: C-terminal c-myc tag and His6 tag coded by vector pAX50
In the case of B1, the binding result in test [1], in test [2], in test [3] and in test [4] was “binds” in each case.

B2: 178C11 (VHH, not shown: small tags and cut ends)
VHH: EVQLVESGGGLVQPGGSLRLSCATSGVIFSTAAMGWYRQAPGKSRVLVARMFSDGRTIYAESVKRRFTISRDNAKNTVYLQMNSLEPEDTAVYYCNALQFGAVYWGQGTQVTVSS
Turning to B2, the binding result in test [1], in test [2], in test [3] and in [4] was “binds” in each case.

B3: 180A4 (VHH)
VHH: EVQLVESGGGLVQPGGSLRLSCAASGRTSSPIAMGWFRQAPGKEREFVSGITWSGAYTHYANSVKGRFTISRDSAKNTVYLQMNSLKPEDTAVYYCTTATNSTTGYDYWGQGTQVTVSS
For B3, the binding entry in [5] was “binds”.

B4: 178C4 (VHH, not shown: small tags and cut ends)
VHH: EVQLVESGGGLVQAGGSLRLSCAASGFTFDDYAIGWFRQAPGKEREGVSCMRGRDGSTYYADSVNGRFTISSDNAKNTVYLQMNSLKPEDTAVYYCAAHTDFACYIGYYSDYDPHDYWGQGTQVTVSS
With B4, the binding entry in [1], in test [2], in test [6], in test [3] and in test [4] was “binds” in each case.

B5: 180F4 (VHH)
VHH: EVQLVESGGGLVQAGDSLRLSCAVSGGSFSSYTMGWVRQAPGKEREAVASIWRSGGNTYYADSVKGRFTVSRDNAKHTVYLQMNSLKPEDTAVYYCAAASFAPGSRGYDYWGQGTQVTVSS
Consider B5, for which the binding result in test [5] is on record as “binds”.

B6: 180B1 (VHH)
VHH: EVQLVESGGDLVQPGGSLRLSCAASGTVFSNNDMGWSRQAPGKERELVASFTSGGNTVYADAAKGRFTISRDNSKNTVYLEMNSLKPDDTAVYYCRVVDLLRGKLYWGQGTQVTVSS
As for B6, in test [5], the binding entry is given as “binds”.

B7: 180B3 (VHH)
VHH: EVQLVESGGDLVQPGGSLRLSCAASGTVFSNNDMGWSRQAPGKERELVASFTSGGNTVYADAAKGRFTISRDNSKNTVYLEMNSLKPDDTAVYYCRVVDLLRGKLYWGQGTQVTVSS
As for B7, the binding result in test [5] was “binds”.

B8: 180F8 (VHH)
VHH: EVQLVESGGDLVQPGGSLRLSCTTSGTVFSINDMGWSRQAPGKGRELVASISSEGTTIYADAAKGRFTISRDNSKNTVYLEMNSLKPDDTAVYYCRVVDPLRGKLYWGQGTQVTVSS
notes: Nanobody against human Notch-1
Turning to B8, the binding entry in test [7], in test [5] and in test [8] was “binds” throughout.

B9: 180C1 (VHH)
VHH: EVQLVESGGDLVQPGGSLRLSCAASRTVFSISDMGWSRQAPGKERELVASISSDNYTVYADAAKGRFTISRDNSKNTVYLEMNSLKPDDTAVYYCRVVDPLRGKLYWGQGTQVTVSS
Consider B9, for which, in test [5], the binding entry is recorded as “binds”.

B10: 180F10 (VHH)
VHH: EVQLVESGGDLVQPGGSLRLSCAASATVFSNSDMGWSRQAPGKERELVASITTDGNTLYADAAKGRFAIYRDNSKNTVYLEMNSLKPDDTAVYYCRVVDLLRGKLYWGQGTQVTVSS
With B10, the binding entry in test [5] is given as “binds”.

B11: 50C4 (VHH)
VHH: EVQLVESGGDLVQPGGSLRLSCAASGFTFSTYYMSWVRQAPGKGLEWVSGIYSDGSNTYYADSVKGRFTISRDNAKNTLYLQMNSLKSEDTAVYYCTRPVVVAGSPVSYEYDYIGQGTQVTVSS
notes: Nanobody against human Notch-3
With B11, the binding result with human Notch-3 [9] and with human Notch-3 [10] was “binds” throughout.

B12: 50H9 (VHH)
VHH: EVQLVESGGDLVQPGGSLRLSCAASGFTFSTYYMSWVRQAPGKGLEWVSGIYSDGSNTYYADSVKGRFTISRDNAKNTLYLQMNSLKSEDTAVYYCTRPVVVAGSPVSYEYDYIGQGTQVTVSS
notes: as for B11
In the case of B12, the binding result with human Notch-3 [9] and with human Notch-3 [10] was “binds” throughout.
